Consider 37 targets from the supplement of paper PMC11006884.

Protein sequences, listed by entry. Tags and fused reporters are not part of them. Lines headed by an entry give the natural chain unless they say otherwise; changes in a name come on top.
UniProt Q14151: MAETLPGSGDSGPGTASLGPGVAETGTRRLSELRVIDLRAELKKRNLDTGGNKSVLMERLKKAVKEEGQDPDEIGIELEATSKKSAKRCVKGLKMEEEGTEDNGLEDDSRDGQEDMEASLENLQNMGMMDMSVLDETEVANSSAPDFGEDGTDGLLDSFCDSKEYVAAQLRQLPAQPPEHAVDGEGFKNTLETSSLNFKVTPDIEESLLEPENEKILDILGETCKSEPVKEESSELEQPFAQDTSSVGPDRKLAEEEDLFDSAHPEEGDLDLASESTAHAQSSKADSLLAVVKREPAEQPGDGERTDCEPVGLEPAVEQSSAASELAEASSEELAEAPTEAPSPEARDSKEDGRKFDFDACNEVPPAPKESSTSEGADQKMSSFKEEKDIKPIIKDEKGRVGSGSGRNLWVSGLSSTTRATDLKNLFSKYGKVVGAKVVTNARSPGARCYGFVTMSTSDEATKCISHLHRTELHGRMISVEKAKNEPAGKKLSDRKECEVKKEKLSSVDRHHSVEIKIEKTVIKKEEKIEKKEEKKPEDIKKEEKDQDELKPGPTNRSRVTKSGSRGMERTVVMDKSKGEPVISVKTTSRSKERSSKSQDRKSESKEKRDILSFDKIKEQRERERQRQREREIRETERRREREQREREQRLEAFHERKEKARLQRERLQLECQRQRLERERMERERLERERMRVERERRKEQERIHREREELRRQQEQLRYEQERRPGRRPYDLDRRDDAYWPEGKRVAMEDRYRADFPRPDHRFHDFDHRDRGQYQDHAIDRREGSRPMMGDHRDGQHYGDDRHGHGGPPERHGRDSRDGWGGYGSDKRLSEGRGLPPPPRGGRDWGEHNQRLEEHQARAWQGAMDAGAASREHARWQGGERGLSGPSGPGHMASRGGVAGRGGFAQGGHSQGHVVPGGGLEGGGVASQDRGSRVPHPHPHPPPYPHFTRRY
UniProt Q14558: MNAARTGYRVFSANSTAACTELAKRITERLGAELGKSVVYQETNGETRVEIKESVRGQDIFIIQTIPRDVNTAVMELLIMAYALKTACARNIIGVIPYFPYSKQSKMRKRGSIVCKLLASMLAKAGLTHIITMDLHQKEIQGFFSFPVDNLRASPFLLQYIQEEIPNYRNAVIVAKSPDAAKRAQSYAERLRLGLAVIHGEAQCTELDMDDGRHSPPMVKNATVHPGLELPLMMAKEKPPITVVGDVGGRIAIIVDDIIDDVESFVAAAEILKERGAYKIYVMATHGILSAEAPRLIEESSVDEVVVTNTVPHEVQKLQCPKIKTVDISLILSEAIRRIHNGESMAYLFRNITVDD
UniProt Q14980: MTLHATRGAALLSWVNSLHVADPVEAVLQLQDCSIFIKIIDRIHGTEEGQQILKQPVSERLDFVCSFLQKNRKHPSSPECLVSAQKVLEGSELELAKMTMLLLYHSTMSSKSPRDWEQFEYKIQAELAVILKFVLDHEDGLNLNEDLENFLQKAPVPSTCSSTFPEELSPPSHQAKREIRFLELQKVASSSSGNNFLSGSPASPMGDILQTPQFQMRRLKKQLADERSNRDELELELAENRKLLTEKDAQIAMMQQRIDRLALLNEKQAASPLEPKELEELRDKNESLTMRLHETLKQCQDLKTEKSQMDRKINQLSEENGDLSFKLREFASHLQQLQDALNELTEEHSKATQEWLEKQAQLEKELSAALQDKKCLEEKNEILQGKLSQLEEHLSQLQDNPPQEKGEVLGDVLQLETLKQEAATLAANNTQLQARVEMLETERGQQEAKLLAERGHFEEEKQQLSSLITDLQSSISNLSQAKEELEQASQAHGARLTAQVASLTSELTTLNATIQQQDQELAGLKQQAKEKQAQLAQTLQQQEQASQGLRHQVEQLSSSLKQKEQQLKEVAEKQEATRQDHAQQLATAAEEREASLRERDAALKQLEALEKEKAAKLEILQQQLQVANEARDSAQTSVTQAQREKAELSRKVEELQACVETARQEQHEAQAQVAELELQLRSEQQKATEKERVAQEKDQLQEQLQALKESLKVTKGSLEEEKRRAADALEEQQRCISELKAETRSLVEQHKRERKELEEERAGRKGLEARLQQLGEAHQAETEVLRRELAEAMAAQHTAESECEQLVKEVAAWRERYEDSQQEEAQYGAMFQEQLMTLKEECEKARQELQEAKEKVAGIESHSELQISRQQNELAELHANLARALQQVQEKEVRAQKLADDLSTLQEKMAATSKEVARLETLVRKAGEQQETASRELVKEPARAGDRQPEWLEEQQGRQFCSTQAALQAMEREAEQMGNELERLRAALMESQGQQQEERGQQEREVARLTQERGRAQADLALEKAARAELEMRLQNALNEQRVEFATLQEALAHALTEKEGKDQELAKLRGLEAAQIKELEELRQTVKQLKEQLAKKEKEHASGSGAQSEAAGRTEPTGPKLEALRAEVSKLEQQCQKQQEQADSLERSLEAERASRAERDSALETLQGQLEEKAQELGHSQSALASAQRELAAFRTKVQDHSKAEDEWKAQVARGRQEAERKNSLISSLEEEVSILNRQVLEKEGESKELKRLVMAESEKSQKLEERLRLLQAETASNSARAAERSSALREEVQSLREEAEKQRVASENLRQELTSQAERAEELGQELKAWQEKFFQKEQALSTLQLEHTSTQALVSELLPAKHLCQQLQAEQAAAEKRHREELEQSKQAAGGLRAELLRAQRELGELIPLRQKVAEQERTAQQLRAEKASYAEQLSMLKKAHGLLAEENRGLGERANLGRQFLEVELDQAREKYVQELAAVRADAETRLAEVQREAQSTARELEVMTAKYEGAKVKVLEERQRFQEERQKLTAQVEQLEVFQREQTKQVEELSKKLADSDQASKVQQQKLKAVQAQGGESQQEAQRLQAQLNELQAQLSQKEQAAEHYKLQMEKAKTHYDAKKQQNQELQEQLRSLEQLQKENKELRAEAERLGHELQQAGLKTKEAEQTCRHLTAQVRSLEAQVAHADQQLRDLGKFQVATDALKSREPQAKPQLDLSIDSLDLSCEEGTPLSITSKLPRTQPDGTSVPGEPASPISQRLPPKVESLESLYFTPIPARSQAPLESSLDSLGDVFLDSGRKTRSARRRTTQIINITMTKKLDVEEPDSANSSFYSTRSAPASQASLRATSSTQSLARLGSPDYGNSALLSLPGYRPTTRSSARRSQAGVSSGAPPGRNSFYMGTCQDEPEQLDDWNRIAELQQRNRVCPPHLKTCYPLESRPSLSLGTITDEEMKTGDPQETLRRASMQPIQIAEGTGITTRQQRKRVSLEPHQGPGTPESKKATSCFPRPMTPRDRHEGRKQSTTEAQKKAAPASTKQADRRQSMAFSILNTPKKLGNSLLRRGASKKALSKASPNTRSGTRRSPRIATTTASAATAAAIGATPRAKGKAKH
UniProt Q14566: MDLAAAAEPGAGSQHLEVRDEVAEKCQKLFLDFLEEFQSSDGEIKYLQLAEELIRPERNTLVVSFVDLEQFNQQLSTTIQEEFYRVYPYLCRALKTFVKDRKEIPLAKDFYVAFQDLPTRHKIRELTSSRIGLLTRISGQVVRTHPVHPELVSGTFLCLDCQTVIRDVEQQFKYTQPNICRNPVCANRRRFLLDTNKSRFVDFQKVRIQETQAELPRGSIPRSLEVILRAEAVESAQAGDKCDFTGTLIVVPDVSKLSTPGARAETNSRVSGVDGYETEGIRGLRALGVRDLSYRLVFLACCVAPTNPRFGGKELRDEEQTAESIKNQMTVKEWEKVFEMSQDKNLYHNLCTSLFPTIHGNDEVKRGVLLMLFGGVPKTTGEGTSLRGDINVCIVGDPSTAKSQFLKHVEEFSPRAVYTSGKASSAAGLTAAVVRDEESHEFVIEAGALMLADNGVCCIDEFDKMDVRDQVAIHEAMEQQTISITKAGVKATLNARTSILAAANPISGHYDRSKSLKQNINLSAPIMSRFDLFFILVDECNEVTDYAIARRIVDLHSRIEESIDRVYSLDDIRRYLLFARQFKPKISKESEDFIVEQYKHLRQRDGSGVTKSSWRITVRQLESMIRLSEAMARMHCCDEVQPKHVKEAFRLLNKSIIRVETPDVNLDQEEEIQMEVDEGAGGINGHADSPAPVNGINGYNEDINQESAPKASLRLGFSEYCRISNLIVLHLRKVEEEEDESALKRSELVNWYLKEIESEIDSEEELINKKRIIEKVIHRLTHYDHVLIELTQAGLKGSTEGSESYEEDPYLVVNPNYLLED
UniProt Q14149: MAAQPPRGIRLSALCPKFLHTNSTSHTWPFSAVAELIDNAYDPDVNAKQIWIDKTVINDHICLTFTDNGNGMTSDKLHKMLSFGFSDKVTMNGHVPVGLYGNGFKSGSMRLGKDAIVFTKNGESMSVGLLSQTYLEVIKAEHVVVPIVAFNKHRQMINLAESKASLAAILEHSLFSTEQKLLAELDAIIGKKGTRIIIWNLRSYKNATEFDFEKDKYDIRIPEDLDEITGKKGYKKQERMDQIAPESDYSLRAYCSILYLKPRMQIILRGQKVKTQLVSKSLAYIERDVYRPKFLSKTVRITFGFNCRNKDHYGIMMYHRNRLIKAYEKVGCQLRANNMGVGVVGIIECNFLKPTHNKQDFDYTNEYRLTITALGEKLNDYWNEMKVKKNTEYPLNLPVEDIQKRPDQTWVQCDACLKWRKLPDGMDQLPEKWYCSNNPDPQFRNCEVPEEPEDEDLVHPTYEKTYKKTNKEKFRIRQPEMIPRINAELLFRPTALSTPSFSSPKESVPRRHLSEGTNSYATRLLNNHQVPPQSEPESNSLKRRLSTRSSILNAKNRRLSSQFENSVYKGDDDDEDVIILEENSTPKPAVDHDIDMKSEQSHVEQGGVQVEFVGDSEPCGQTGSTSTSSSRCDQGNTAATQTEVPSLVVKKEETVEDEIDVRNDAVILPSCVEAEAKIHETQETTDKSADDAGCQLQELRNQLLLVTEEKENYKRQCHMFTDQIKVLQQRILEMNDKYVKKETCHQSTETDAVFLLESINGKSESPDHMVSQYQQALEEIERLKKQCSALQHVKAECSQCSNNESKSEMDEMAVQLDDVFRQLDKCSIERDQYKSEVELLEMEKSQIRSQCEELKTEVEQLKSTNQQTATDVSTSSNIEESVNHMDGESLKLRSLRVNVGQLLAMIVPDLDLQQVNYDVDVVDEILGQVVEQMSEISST
UniProt Q14202: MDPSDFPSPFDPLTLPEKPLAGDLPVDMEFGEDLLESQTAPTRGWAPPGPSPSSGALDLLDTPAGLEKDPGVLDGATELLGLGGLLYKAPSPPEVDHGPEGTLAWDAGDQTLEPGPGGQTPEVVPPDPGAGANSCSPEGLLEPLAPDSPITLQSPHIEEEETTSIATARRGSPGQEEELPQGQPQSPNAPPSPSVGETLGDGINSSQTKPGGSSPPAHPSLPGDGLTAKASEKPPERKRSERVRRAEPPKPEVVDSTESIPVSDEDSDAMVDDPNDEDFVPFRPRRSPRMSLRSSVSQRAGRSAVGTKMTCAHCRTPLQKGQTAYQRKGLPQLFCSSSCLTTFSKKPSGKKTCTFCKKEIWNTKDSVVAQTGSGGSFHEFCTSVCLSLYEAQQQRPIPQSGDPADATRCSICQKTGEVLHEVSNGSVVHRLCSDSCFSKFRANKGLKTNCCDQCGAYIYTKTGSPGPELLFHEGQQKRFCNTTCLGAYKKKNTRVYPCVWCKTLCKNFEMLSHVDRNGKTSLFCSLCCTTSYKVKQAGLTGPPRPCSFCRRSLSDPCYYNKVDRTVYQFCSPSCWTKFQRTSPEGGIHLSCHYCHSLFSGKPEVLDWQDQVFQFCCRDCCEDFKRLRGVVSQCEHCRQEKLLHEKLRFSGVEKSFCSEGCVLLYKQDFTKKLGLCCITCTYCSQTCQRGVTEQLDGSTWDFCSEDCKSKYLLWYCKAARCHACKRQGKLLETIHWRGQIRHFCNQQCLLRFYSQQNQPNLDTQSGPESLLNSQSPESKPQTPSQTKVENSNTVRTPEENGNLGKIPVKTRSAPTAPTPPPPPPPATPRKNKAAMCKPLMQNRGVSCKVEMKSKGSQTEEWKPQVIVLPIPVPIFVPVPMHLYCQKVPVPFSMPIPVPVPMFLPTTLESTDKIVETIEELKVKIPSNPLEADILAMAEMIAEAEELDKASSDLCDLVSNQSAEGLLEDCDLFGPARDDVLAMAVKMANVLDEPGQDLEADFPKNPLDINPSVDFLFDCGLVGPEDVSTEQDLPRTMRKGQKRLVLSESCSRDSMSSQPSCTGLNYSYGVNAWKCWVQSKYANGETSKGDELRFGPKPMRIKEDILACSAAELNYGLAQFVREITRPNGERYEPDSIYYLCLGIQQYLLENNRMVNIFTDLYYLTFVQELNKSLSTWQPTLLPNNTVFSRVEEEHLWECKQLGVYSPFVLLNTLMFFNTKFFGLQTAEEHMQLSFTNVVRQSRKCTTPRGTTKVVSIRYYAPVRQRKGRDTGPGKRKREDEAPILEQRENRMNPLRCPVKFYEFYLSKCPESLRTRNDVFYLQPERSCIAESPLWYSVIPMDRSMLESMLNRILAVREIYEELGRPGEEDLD

Shown are results outside the selection of targets with a hit, which stands elsewhere. Single values of this set are uncertain. Only a part is listed here, and it is no random draw.

Compound in this assay: COC(=O)/C=C/c1ccccc1 [methyl cinnamate]
As to the kind of experiment: log2 ratio of iodoacetamide-alkyne labeling of the cysteine site, DMSO over compound (competition); higher = stronger covalent engagement of the cysteine by the compound, active = 1 or more. Conditions: 500 µM; treatment time 1 h; system: HEK293T cell lysate. Summed up: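 Three replicates, each with duplicate channels, were prepared from HEK293T lysate (2 mg/mL) treated with vehicle or electrophile at 500 µM for 1 h at ambient temperature. Iodoacetamide alkyne was then applied for 1 h, and samples were clicked to sCIP-TMT reagents, pooled, trypsin-digested overnight at 37 °C, enriched on streptavidin, acid-eluted and analysed on Orbitrap Eclipse LC-MS/MS with FAIMS, with FragPipe quantification. The log2 competition ratio per cysteine is the mean control-channel divided by the mean compound-channel reporter intensity. Cysteines quantified in only one replicate were left out.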
For the target UniProt Q15019_C114, the “log2 ratio of iodoacetamide-alkyne labeling” value (“log2 ratio” below) was inactive: -0.124.
With SAFB2 C361 (UniProt Q14151) the figure was inactive: 0.154; with HNRNPD C126 (UniProt Q14103), inactive: 0.176.
With UniProt Q14004_C1017 the figure was inactive: 0.242; with SPTAN1 C1930 (UniProt Q13813), inactive: 0.185.
With CAMK1 C179 (UniProt Q14012) the figure was inactive: 0.294.
As for CHD4 C1468 (UniProt Q14839), the “log2 ratio” value is inactive: 0.195.
With NCAPH C714 (UniProt Q15003) the figure was inactive: 0.255.
With PRPSAP1 C19 (UniProt Q14558) the figure was inactive: -0.00286.
As for SPTAN1 C1622 (UniProt Q13813), the “log2 ratio” value was inactive: 0.239.
To USP10 C254 (UniProt Q14694) belongs inactive: 0.273; to KPNB1 C455 (UniProt Q14974), inactive: 0.169.
In the case of NUMA1 C80 (UniProt Q14980), the “log2 ratio” value was inactive: 0.135.
Turning to MCM6 C302 (UniProt Q14566), the “log2 ratio” value is inactive: 0.175.
Regarding FHL1 C191 (UniProt Q13642), the “log2 ratio” value was inactive: 0.061.
To ITPR3 C1638 (UniProt Q14573) belongs inactive: 0.188; to SQSTM1 C289 (UniProt Q13501), inactive: 0.524.
For the target CHD4 C1827 (UniProt Q14839), the “log2 ratio” value is inactive: 0.2.
With MORC3 C632 (UniProt Q14149) the figure was inactive: 0.515; with NUMA1 C1136 (UniProt Q14980), inactive: 0.183; with NUMA1 C2009 (UniProt Q14980), inactive: 0.483.
With EIF3A C78 (UniProt Q14152) the figure was inactive: 0.153; with NAE1 C384 (UniProt Q13564), inactive: 0.0783.
To UniProt Q13885_C127 belongs inactive: 0.428.
For the target ZMYM3 C557 (UniProt Q14202), the “log2 ratio” value is inactive: 0.0839.
With SQSTM1 C131 (UniProt Q13501) the figure was inactive: 0.0308; with SAFB2 C449 (UniProt Q14151), inactive: 0.309; with SAFB2 C672 (UniProt Q14151), inactive: 0.166.
With BOP1 C373 (UniProt Q14137) the figure was inactive: -0.149; with RRP1B C628 (UniProt Q14684), inactive: 0.496; with MDC1 C128 (UniProt Q14676), inactive: 0.00217.
To HLTF C812 (UniProt Q14527) belongs inactive: 0.0644.
As for FKBP8 C227 (UniProt Q14318), the “log2 ratio” value is inactive: 0.0246.
To CTTN C112 (UniProt Q14247) belongs inactive: 0.306; to CASP8 C360 (UniProt Q14790), inactive: 0.195.
With CKAP5 C1795 (UniProt Q14008) the figure was inactive: -0.102; with GALE C196 (UniProt Q14376), inactive: -0.00548.
